In PubChem BioAssay AID504467 (National Center for Advancing Translational Sciences (NCATS), 2011):
Among all 330,000 compounds or so, about 7,700 (2.3%) were called active. The shares of active, inactive and inconclusive entries below differ from those in the screen. The call rests on the fitted dose curve; in most records, active means well fitted inhibition curve with a large enough effect; inconclusive means small, poorly fitted or top-dose-only effect, or effect the other way; inactive means flat fitted curve, though single readings scatter. Potencies beside an inconclusive call are fits to weak or partial responses and may not hold up.
Potency means the concentration at half of the fitted maximal effect.

Experiment: qHTS screen for small molecules that inhibit ELG1-dependent DNA repair in human embryonic kidney (HEK293T) cells expressing luciferase-tagged ELG1; further: nearly all actives have a fitted effect of over 55% in size
Details: HEK293T ELG1-luciferase reporter, luminescence, 16 h, DNA damage induced by 5-fluorouridine; series mostly up to 46.1 µM
Summary of the method: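 Cells (2,000 per well) received 5-fluorouridine plus test compound or DMSO and were incubated 16 hr at 37 °C, 5% CO2. Luciferase activity was read by luminescence 30 min after ONE-Glo addition; signal suppression marked inhibition of damage-induced ELG1 function.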
With `CC(=O)Nc1ccc(-c2csc(NCc3ccco3)n2)cc1` the Potency was inconclusive: 5.17 µM [activator, partial curve]. In the case of `O=C(CSc1nc2ccc([N+](=O)[O-])cc2[nH]1)c1ccc(Cl)cc1`, the Potency is reported as inconclusive: 29.1 µM [inhibitor, single point]. In the case of `Cc1ccc(N(Cc2ccccc2)C(=O)c2ccc(F)cc2)cc1`, the Potency is reported as “inactive”. In the case of `CC1=CC(C)(C)N=C(Nc2nc(C)c3cc(C)cc(C)c3n2)N1`, the Potency is reported as inconclusive: 11.6 µM [activator, partial curve]. For `COc1ccc2nc(NC(=O)C3CCCN(S(=O)(=O)c4cccs4)C3)sc2c1` (stereo not drawn), the Potency was inconclusive: 29.1 µM [inhibitor, single point]. With `COCC(C)n1c(COc2ccccc2F)nnc1SCC(=O)c1c(N)n(C)c(=O)n(C)c1=O` (stereo not drawn) the Potency was inconclusive: 29.1 µM [inhibitor, single point]. With `O=C(Nc1ccccn1)c1ccc(Br)s1` the Potency was inconclusive: 9.2 µM [activator, partial curve]. For `CCOC(=O)Cc1nc2ccccc2o1`, the Potency was inconclusive: 29.1 µM [activator, single point]. In the case of `COc1ccc(NS(=O)(=O)c2cccc(C(=O)OCC(=O)c3c(N)n(C)c(=O)n(C)c3=O)c2)cc1`, the Potency is reported as inconclusive: 18.3 µM [inhibitor, single point]. In the case of `CC(C)(C)n1ncc2c(=O)n(CC(=O)OCc3ccccc3)cnc21`, the Potency is reported as inconclusive: 2.59 µM [activator, partial curve]. For `CCN=C1S/C(=C\c2ccc(O)c(OCC)c2)C(=O)N1CC`, the Potency was inconclusive: 25.9 µM [inhibitor, partial curve, poor fit]. For `CCOc1ccc(OCc2ccc(C(=O)NC(C)C)o2)cc1`, the Potency was inconclusive: 20.6 µM [activator, partial curve, poor fit]. For `Cc1ccc(Cl)cc1N1CCN(C(=O)c2cc3c(=O)n(C)c4ccccc4c3n2C)CC1`, the Potency was inconclusive: 4.61 µM [inhibitor, single point]. For `Cn1nc(OCCOc2ccccc2)ccc1=O`, the Potency was inconclusive: 15.8 µM [activator, single point]. With `CCN(CC)S(=O)(=O)c1ccc2nc(NC(=O)c3cccs3)sc2c1` the Potency was inconclusive: 23.1 µM [inhibitor, single point]. In the case of `CC(=O)N1CC(C)Oc2ccc(S(=O)(=O)NC(CC(=O)O)c3ccccc3)cc21` (stereo not drawn), the Potency is reported as inconclusive: 20.6 µM [activator, partial curve, poor fit]. With `CCn1c(SCC(=O)NC2CCCCC2)nnc1C(CO)NC(=O)c1ccccc1` (stereo not drawn) the Potency was “inactive”. For `CC(=O)Nc1ccc(-c2csc(NC(=O)c3ccc(C)o3)n2)cc1`, the Potency was “inactive”.
